Measured values: paper doi:10.1101/2021.05.26.444586

Amino acid sequences for entries named in this document (tags omitted).
UniProt P70429: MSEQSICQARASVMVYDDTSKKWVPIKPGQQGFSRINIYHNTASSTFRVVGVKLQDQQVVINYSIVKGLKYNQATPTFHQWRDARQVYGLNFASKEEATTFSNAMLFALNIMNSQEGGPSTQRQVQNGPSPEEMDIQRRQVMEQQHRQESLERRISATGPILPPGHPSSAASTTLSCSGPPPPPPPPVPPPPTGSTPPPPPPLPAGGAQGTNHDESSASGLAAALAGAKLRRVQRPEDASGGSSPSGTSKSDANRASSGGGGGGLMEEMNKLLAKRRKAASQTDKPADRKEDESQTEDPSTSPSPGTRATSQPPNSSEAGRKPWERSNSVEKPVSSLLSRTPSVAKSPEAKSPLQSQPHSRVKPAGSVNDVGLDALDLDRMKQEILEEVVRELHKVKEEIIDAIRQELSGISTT

Biological target: EVL (Ena/VASP-like protein), endogenous (mouse (endogenous in primary cortical neurons)) (UniProt P70429)
Test: affinity purification with mass spectrometry

B1: MIM/MTSS1, endogenous (protein, UniProt Q8R1S4 1-759)
chain: MEAVIEKECSALGGLFQTIISDMKGSYPVWEDFINKAGKLQSQLRTTVVAAAAFLDAFQKVADMATNTRGGTREIGSALTRMCMRHRSIEAKLRQFSSALIDCLINPLQEQMEEWKKVANQLDKDHAKEYKKARQEIKNKSSDTLKLQKKAKKVDAQGRGDIQPQLDSALQDVNDKYLLLEETEKQAVRKALIEERGRFCTFISMLRPVIEEEISMLGEITHLQTISEDLKSLTMDPHKLPSSSEQVILDLKGSDYSWSYQTPPSSPSTTMSRKSSVCSSLNSVNSSDSRSSGSHSHSPSSHYRYRSSNLAQQAPVRLSSVSSHDSGFISQDAFQSKSPSPMPPEAANQLSNGFSHCSLSSESHAGPVGAGPFPHCLPASRLLPRVTSVHLPDYAHYYTIGPGMFPSSQIPSWKDWAKPGPYDQPLVNTLQRRKEKREPDSNGGGPTTTGGPPAGAEEAQRPRSMTVSAATRPGEEMAACEELTLALSRGLQLDVQRSSRDSLQCSSGYSTQTTTPCCSEDTIPSQVSDYDYFSVSGDQEAEQQEFDKSSTIPRNSDISQSYRRMFQAKRPASTAGLPTTLGPAMVTPGVATIRRTPSTKPSVRRGTIGAGPIPIKTPVIPVKTPTVPDLPGVLPSPPDGPEERGEHSPESPSAGEGPQGVSNIPSSLWSGQAPVNPPLPGPKPSIPEEHRQAIPESEAEDQERDPPSATVSPGPIPESDPADLSPRESPQGEDMLNAIRRGVKLKKTTTNDRSAPRFS
In the case of B1, the binding is reported as “binds”.

These are yes or no findings as the source states them, for the method shown. Binding seen in cells or lysates may run through a third protein. These calls come from enrichment with a bait or labelling near it, and not all partners need be listed.
